Laboratory results as given in article PMC8269107, “Lipidation of Temporin-1CEb Derivatives as a Tool for Activity Improvement, Pros and Cons of the Approach” (International Journal of Molecular Sciences, 2021).

What was measured:
[1] = ITC, binding to zwitterionic membrane; conditions: POPC LUVs, 25 °C; for n: stoichiometry (phospholipids per peptide)
Method: The ITC experiments were performed according to the previously reported protocol in PBS (pH 7.4) at 25 °C using an AutoITC isothermal titration calorimeter (MicroCal Inc., Northampton, USA) with a 1.4491-mL sample and reference cells filled with distilled water. In each experiment, 29 injections of 10.02 µL each (2 µL for the first only) of a liposome solution at a concentration of 1.31 mM were added into a 0.05 mM and/or 0.1 mM peptide solution. An initial 2-μL injection was discarded from each dataset in order to remove the effect of titrant diffusion across the syringe tip during the equilibration process. Each injection lasted 20 s. The titrant was injected at 4 min intervals to ensure that the titration peak returned to the baseline before the next injection. To ensure a homogeneous mixing in the cell, the stirrer speed was kept constant at 300 rpm.
A complete binding of the peptide to lipid vesicles provides the possibility for determination of the total binding enthalpy (∆H) as well as a binding constant (Ka), reflecting the affinity of the lipopeptide to liposomes, stoichiometry of binding (n), that is, the number of phospholipids per peptide, by fitting the titration result data to one set of sites’ model using Origin 7 from MicroCal. Changes in entropy (∆S) and the Gibbs free energy (∆G) were calculated from Equation (1), where factor 55.5 is the molar concentration of water, R is the gas constant (1.986 cal·mol^−1·K^−1) and T is the absolute temperature:∆G = -RTln(55.5Ka) = ∆H-T∆S(1)
The liposomes for ITC experiments were made of POPC or POPG lipids. The lipids were dissolved in a chloroform:methanol (2:1; v/v) mixture, evaporated under nitrogen and desiccated under vacuum overnight to remove any residual solvents. Afterwards, the dry lipid film was resuspended in a phosphate buffer solution and shaken for 2 h at room temperature (phase transition point, Tm = −2 °C) to obtain multilamellar vesicles (MLVs). Finally, the MLV suspension was extruded through polycarbonate membranes (100 nm in diameter, Whatman International Ltd., Dorset, UK) using a mini-extruder (Avanti Polar Lipids, Inc., Alabaster, AL, USA) to obtain large unilamellar vesicles (LUVs) used in titration experiments.

[2] = Circular dichroism in POPG; assay type: physicochemical; conditions: CD, 1.31 mM POPG in PBS pH 7.4, peptide 0.13 mM

SMILES | TΔS [1] [kcal/mol] | ΔG [1] [kcal/mol] | ΔH [1] [kcal/mol] | n [1] | α-Helicity [2] [%]
CCCCCCCCCCCC(=O)N[C@H](C(=O)N[C@@H](CCCCN)C(=O)N[C@@H](CCCCN)C(=O)N[C@H](C(=O)N[C@@H](CC(C)C)C(=O)N[C@@H](CO)C(=O)N[C@@H](CCCCN)C(=O)N[C@H](C(=O)N[C@@H](CCCCN)C(=O)N[C@@H](CCCCN)C(=O)N[C@@H](CC(C)C)C(=O)N[C@@H](CC(C)C)C(N)=O)[C@@H](C)CC)[C@@H](C)CC)[C@@H](C)CC [Compound C12-DK5] (Lauroyl-IKKILSKIKKLL-NH2) | 8.56 ± 0.26 | -8.38 ± 0.26 | 0.18 ± 0.03 | 2.65 ± 0.31 | 83.7
CC[C@H](C)[C@H](NC(=O)COCCOCCNC(=O)[C@H](Cc1c[nH]cn1)NC(=O)CCNC(=O)CCCCCN)C(=O)N[C@@H](CCCCN)C(=O)N[C@@H](CCCCN)C(=O)N[C@H](C(=O)N[C@@H](CC(C)C)C(=O)N[C@@H](CO)C(=O)N[C@@H](CCCCN)C(=O)N[C@H](C(=O)N[C@@H](CCCCN)C(=O)N[C@@H](CCCCN)C(=O)N[C@@H](CC(C)C)C(=O)N[C@@H](CC(C)C)C(N)=O)[C@@H](C)CC)[C@@H](C)CC [AHX-CAR-PEG-DK5] (H-[Ahx][βAla]H[AEEA]IKKILSKIKKLL-NH2) |  |  |  |  | 87.5
CCCCC(=O)NCCC(=O)N[C@@H](Cc1c[nH]cn1)C(=O)NCCOCCOCC(=O)N[C@H](C(=O)N[C@@H](CCCCN)C(=O)N[C@@H](CCCCN)C(=O)N[C@H](C(=O)N[C@@H](CC(C)C)C(=O)N[C@@H](CO)C(=O)N[C@@H](CCCCN)C(=O)N[C@H](C(=O)N[C@@H](CCCCN)C(=O)N[C@@H](CCCCN)C(=O)N[C@@H](CC(C)C)C(=O)N[C@@H](CC(C)C)C(N)=O)[C@@H](C)CC)[C@@H](C)CC)[C@@H](C)CC [C5-CAR-PEG-DK5] ({Pentanoyl-βAla}-H[AEEA]IKKILSKIKKLL-NH2) |  |  |  |  | 94.7
CCCCCCCCCCCCCCCC(=O)NCCC(=O)N[C@@H](Cc1c[nH]cn1)C(=O)NCCOCCOCC(=O)N[C@H](C(=O)N[C@@H](CCCCN)C(=O)N[C@@H](CCCCN)C(=O)N[C@H](C(=O)N[C@@H](CC(C)C)C(=O)N[C@@H](CO)C(=O)N[C@@H](CCCCN)C(=O)N[C@H](C(=O)N[C@@H](CCCCN)C(=O)N[C@@H](CCCCN)C(=O)N[C@@H](CC(C)C)C(=O)N[C@@H](CC(C)C)C(N)=O)[C@@H](C)CC)[C@@H](C)CC)[C@@H](C)CC [C16-CAR-PEG-DK5] ({Palmitoyl-βAla}-H[AEEA]IKKILSKIKKLL-NH2) |  |  |  |  | 85.2
CCCCC(=O)N[C@H](C(=O)N[C@@H](CCCCN)C(=O)N[C@@H](CCCCN)C(=O)N[C@H](C(=O)N[C@@H](CC(C)C)C(=O)N[C@@H](CO)C(=O)N[C@@H](CCCCN)C(=O)N[C@H](C(=O)N[C@@H](CCCCN)C(=O)N[C@@H](CCCCN)C(=O)N[C@@H](CC(C)C)C(=O)N[C@@H](CC(C)C)C(N)=O)[C@@H](C)CC)[C@@H](C)CC)[C@@H](C)CC [Compound C5-DK5] (Pentanoyl-IKKILSKIKKLL-NH2) |  |  |  |  | 89.6
CC[C@H](C)[C@H](NC(=O)CCCCCN)C(=O)N[C@@H](CCCCN)C(=O)N[C@@H](CCCCN)C(=O)N[C@H](C(=O)N[C@@H](CC(C)C)C(=O)N[C@@H](CO)C(=O)N[C@@H](CCCCN)C(=O)N[C@H](C(=O)N[C@@H](CCCCN)C(=O)N[C@@H](CCCCN)C(=O)N[C@@H](CC(C)C)C(=O)N[C@@H](CC(C)C)C(N)=O)[C@@H](C)CC)[C@@H](C)CC [AHX-DK5] (H-[Ahx]IKKILSKIKKLL-NH2) |  |  |  |  | 85.6
CCCCCCCCCCCC(=O)NCCC(=O)N[C@@H](Cc1c[nH]cn1)C(=O)NCCOCCOCC(=O)N[C@H](C(=O)N[C@@H](CCCCN)C(=O)N[C@@H](CCCCN)C(=O)N[C@H](C(=O)N[C@@H](CC(C)C)C(=O)N[C@@H](CO)C(=O)N[C@@H](CCCCN)C(=O)N[C@H](C(=O)N[C@@H](CCCCN)C(=O)N[C@@H](CCCCN)C(=O)N[C@@H](CC(C)C)C(=O)N[C@@H](CC(C)C)C(N)=O)[C@@H](C)CC)[C@@H](C)CC)[C@@H](C)CC [C12-CAR-PEG-DK5] ({Lauroyl-βAla}-H[AEEA]IKKILSKIKKLL-NH2) | 9.89 ± 0.19 | -9.71 ± 0.19 | 0.18 ± 0.01 | 1.36 ± 0.04 | 86.3
CCCCCCCCCCCCCCCC(=O)N[C@H](C(=O)N[C@@H](CCCCN)C(=O)N[C@@H](CCCCN)C(=O)N[C@H](C(=O)N[C@@H](CC(C)C)C(=O)N[C@@H](CO)C(=O)N[C@@H](CCCCN)C(=O)N[C@H](C(=O)N[C@@H](CCCCN)C(=O)N[C@@H](CCCCN)C(=O)N[C@@H](CC(C)C)C(=O)N[C@@H](CC(C)C)C(N)=O)[C@@H](C)CC)[C@@H](C)CC)[C@@H](C)CC [Compound C16-DK5] (Palmitoyl-IKKILSKIKKLL-NH2) |  |  |  |  | 100

Where a SMILES comes first, the peptide text is derived from it. [ ]: non-standard residue; d: D form. The star is where a group is joined. Palmitoyl = CCCCCCCCCCCCCCCC(=O)*; Lauroyl = CCCCCCCCCCCC(=O)*; Pentanoyl = CCCCC(=O)*; AEEA = NCCOCCOCC(=O)O; Ahx = NCCCCCC(=O)O; βAla = NCCC(=O)O
